Reference: PubChem BioAssay AID1259272 (Sanger Institute, 2017)

Aim: 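Kinome-wide siRNA search for genes whose silencing boosts targeted drug effects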 (primary screen)
Cell system: SW1116 human colorectal cancer cells
Reagent: siRNA pool against human genes
Treatment: anchor drugs BYL719 (1 µM), cetuximab (5 µg/ml) or trametinib (10 nM), or DMSO vehicle; exposure length not given
Read-out: 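Cell survival as a fraction of wells given a non-targeting pool, averaged over replicates; robust z-score without drug; synergy score for each of BYL719, cetuximab and trametinib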
Reading the numbers: viability z-score, no drug: higher = more cells remaining; strongly negative means essential gene; viability, no drug: higher = more viable cells; synergy score with BYL719: higher = stronger synthetic-lethal synergy with the drug
Call rule: 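a robust z-score under -3 with siRNA and no drug marks the gene essential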
Calls: active = essential (knock-down alone); inactive = no change
In all, the deposit lists 794 reagents; shown is a random part of them. In the full data, 7 (0.88%) are marked active. 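Essential calls reflect knock-down without drug only, not synergy with drugs; drug exposure length not given.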 No viability above 1 is reported: the scale is capped. Further read-outs or replicates are left out here. Not stated in the record: the amount of reagent, the time to read-out.

| gene | viability z-score, no drug | viability, no drug (fraction of control) | synergy score with BYL719 | Outcome |
| --- | --- | --- | --- | --- |
| AMER1 (APC membrane recruitment protein 1) | 0.633 | 0.978 | 0.0775 | inactive |
| LCK (LCK proto-oncogene, Src family tyrosine kinase) | -0.00699 | 0.91 | 0.0408 | inactive |
| FLT4 (fms related receptor tyrosine kinase 4) | -1.96 | 0.702 | -0.235 | inactive |
| ITSN1 (intersectin 1) | 0.677 | 0.982 | 0.128 | inactive |
| PRKAA2 (protein kinase AMP-activated catalytic subunit alpha 2) | -0.318 | 0.876 | -0.0816 | inactive |
| STK36 (serine/threonine kinase 36) | -1.3 | 0.771 | -0.289 | inactive |
| HASPIN (histone H3 associated protein kinase) | -1.08 | 0.795 | -0.254 | inactive |
| RIOK3 (RIO kinase 3) | 0.842 | 1 | -0.0144 | inactive |
| MAP3K8 (mitogen-activated protein kinase kinase kinase 8) | -1.02 | 0.801 | -0.195 | inactive |
| PIK3C3 (phosphatidylinositol 3-kinase catalytic subunit type 3) | 0.842 | 1 | 0.00888 | inactive |
| ARAF (A-Raf proto-oncogene, serine/threonine kinase) | 0.842 | 1 | -0.0467 | inactive |
| CDK4 (cyclin dependent kinase 4) | 0.842 | 1 | 0.0762 | inactive |
| TBX3 (T-box transcription factor 3) | 0.842 | 1 | -0.076 | inactive |
| MAP4K2 (mitogen-activated protein kinase kinase kinase kinase 2) | 0.553 | 0.969 | -0.0687 | inactive |
| LRRK1 (leucine rich repeat kinase 1) | 0.842 | 1 | -0.0788 | inactive |
| MAP3K3 (mitogen-activated protein kinase kinase kinase 3) | -0.754 | 0.83 | -0.0698 | inactive |
| MVK (mevalonate kinase) | 0.356 | 0.948 | -0.123 | inactive |
| PDGFRB (platelet derived growth factor receptor beta) | -2.45 | 0.649 | -0.0782 | inactive |
| SCYL3 (SCY1 like pseudokinase 3) | -0.884 | 0.816 | -0.114 | inactive |
| CKS2 (CDC28 protein kinase regulatory subunit 2) | 0.842 | 1 | -0.0517 | inactive |
| MAPK3 (mitogen-activated protein kinase 3) | 0.35 | 0.948 | -0.022 | inactive |
| PRKY (protein kinase Y-linked (pseudogene)) | 0.348 | 0.947 | 0.00136 | inactive |
| PNKP (polynucleotide kinase 3'-phosphatase) | -2.35 | 0.66 | -0.198 | inactive |

3 consecutive entries from above, for reference:
| gene | viability z-score, no drug | viability, no drug (fraction of control) | synergy score with BYL719 | Outcome |
| --- | --- | --- | --- | --- |
| MAP4K2 (mitogen-activated protein kinase kinase kinase kinase 2) | 0.553 | 0.969 | -0.0687 | inactive |
| LRRK1 (leucine rich repeat kinase 1) | 0.842 | 1 | -0.0788 | inactive |
| MAP3K3 (mitogen-activated protein kinase kinase kinase 3) | -0.754 | 0.83 | -0.0698 | inactive |

More results:
| gene | viability z-score, no drug | viability, no drug (fraction of control) | synergy score with BYL719 | Outcome |
| --- | --- | --- | --- | --- |
| ATRX (ATRX chromatin remodeler) | 0.842 | 1 | -0.0788 | inactive |
| CDKN2D (cyclin dependent kinase inhibitor 2D) | -1.5 | 0.751 | -0.12 | inactive |
| MAP3K9 (mitogen-activated protein kinase kinase kinase 9) | -1.81 | 0.717 | -0.102 | inactive |
| MAP3K7 (mitogen-activated protein kinase kinase kinase 7) | -0.712 | 0.835 | -0.198 | inactive |
| CDK5R2 (cyclin dependent kinase 5 regulatory subunit 2) | 0.842 | 1 | -0.0788 | inactive |
| MYLK2 (myosin light chain kinase 2) | -0.481 | 0.859 | -0.102 | inactive |
| GRK5 (G protein-coupled receptor kinase 5) | 0.842 | 1 | -0.0504 | inactive |
| PSKH2 (protein serine kinase H2) | 0.0423 | 0.915 | -0.00961 | inactive |
| CDK9 (cyclin dependent kinase 9) | 0.842 | 1 | -0.0212 | inactive |
| MKNK2 (MAPK interacting serine/threonine kinase 2) | 0.842 | 1 | 0.0101 | inactive |
| NLK (nemo like kinase) | 0.782 | 0.994 | 0.0853 | inactive |
| GSK3B (glycogen synthase kinase 3 beta) | -0.508 | 0.856 | -0.195 | inactive |
| CDC42BPG (CDC42 binding protein kinase gamma) | 0.842 | 1 | 0.00106 | inactive |
| STAG2 (STAG2 cohesin complex component) | 0.842 | 1 | -0.02 | inactive |
| PRKCZ (protein kinase C zeta) | -0.711 | 0.835 | 0.181 | inactive |
| PRKCQ (protein kinase C theta) | -0.533 | 0.854 | -0.112 | inactive |
| DGKG (diacylglycerol kinase gamma) | 0.842 | 1 | 0.0544 | inactive |
| EFNA5 (ephrin A5) | 0.842 | 1 | -0.0788 | inactive |
| PRPS1 (phosphoribosyl pyrophosphate synthetase 1) | -0.33 | 0.875 | 0.0913 | inactive |
| SPEG (striated muscle enriched protein kinase) | 0.842 | 1 | -0.0645 | inactive |
| DYRK1B | 0.842 | 1 | 0.102 | inactive |
| NTRK2 (neurotrophic receptor tyrosine kinase 2) | 0.224 | 0.934 | -0.0477 | inactive |
| CSK (C-terminal Src kinase) | 0.842 | 1 | -0.0245 | inactive |
| PSKH1 (protein serine kinase H1) | 0.842 | 1 | -0.0505 | inactive |
| RIPK2 (receptor interacting serine/threonine kinase 2) | 0.842 | 1 | 0.024 | inactive |
| TRIO (trio Rho guanine nucleotide exchange factor) | 0.431 | 0.956 | -0.0394 | inactive |
| PIKFYVE (phosphoinositide kinase, FYVE-type zinc finger containing) | 0.644 | 0.979 | 0.0393 | inactive |
